One data set has as its target T1, Dna2 OB domain (UniProt Q6ZQJ5).
T1 sequence (looked up): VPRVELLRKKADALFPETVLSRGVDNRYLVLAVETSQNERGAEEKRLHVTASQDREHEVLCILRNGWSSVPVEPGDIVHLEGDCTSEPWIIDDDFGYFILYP
Briefly: EMSA. The settings on record: no detectable binding up to 80 uM, smeary shift of ~4% of DNA at 160 uM; EMSA: 20 mM Tris-HCl pH 8.0, 80 mM NaCl, 0.3 mM TCEP, 0.2 mg/mL BSA, 2% glycerol, on ice 30 min, 0.075 or 0.3 nM 32P-DNA; 4% native PAGE, 1x TB, 4 C; recombinant protein; residues 21-122; single-stranded DNA.

Chains of the proteins cited; added tags and fusions are not shown. A line that says so, or that is headed by a name, gives the form on record, which may keep a tag or linker. Residues count along the entry.
UniProt Q8VEE4, 191-431: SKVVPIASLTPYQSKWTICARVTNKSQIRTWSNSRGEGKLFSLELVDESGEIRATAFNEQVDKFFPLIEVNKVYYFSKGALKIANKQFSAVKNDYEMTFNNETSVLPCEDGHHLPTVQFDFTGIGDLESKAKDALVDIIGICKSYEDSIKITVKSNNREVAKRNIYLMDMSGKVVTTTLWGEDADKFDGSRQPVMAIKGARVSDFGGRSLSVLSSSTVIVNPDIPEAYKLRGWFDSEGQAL
Rpa heterotrimer (Rpa70/Rpa32/Rpa14) (Mus musculus), one chain, as listed by the source, chain 3 of 2: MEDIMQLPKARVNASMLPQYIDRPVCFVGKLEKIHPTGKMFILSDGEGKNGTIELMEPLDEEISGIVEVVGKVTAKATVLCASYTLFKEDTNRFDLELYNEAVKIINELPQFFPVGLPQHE
Rpa heterotrimer (Rpa70/Rpa32/Rpa14) (Mus musculus), one chain, as listed by the source, chain 2 of 2: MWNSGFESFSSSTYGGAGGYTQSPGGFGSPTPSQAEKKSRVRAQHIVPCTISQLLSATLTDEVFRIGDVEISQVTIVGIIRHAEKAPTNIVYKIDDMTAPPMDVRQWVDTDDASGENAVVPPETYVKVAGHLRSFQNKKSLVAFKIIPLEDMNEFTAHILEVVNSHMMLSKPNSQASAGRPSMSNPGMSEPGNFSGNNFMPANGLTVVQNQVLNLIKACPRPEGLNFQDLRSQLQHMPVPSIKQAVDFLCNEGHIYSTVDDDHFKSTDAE

The target in data set [1] is T2, Rpa70N (OBN) (Mus musculus) (UniProt Q8VEE4).
T2 sequence (looked up): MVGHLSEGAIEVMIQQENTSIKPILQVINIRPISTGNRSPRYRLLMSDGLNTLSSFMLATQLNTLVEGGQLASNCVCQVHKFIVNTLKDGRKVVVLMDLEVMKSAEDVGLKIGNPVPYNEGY
As to the kind of experiment: competition (GST pull-down). The settings on record: DNA does not affect GST-Dna2 alpha1 binding, text states lack of ssDNA affinity; EMSA: 20 mM Tris-HCl pH 8.0, 80 mM NaCl, 0.3 mM TCEP, 0.2 mg/mL BSA, 2% glycerol, on ice 30 min, 0.075 or 0.3 nM 32P-DNA; 4% native PAGE, 1x TB, 4 C; recombinant protein; residues 1-122; protein details: 6-His-SUMO removed; single-stranded DNA. A general note: A gel shift assay detects complexes by their altered migration in electrophoresis.

Data set [2] deals with Rpa70AB (DBD-A and DBD-B) (Mus musculus) (UniProt Q8VEE4). Briefly: competition (GST pull-down). The settings on record: DNA abolishes GST-Dna2 OB binding, stoichiometry dependent; EMSA: 20 mM Tris-HCl pH 8.0, 80 mM NaCl, 0.3 mM TCEP, 0.2 mg/mL BSA, 2% glycerol, on ice 30 min, 0.075 or 0.3 nM 32P-DNA; 4% native PAGE, 1x TB, 4 C; recombinant protein; residues 191-431; protein details: 6-His-SUMO removed; single-stranded DNA.

Data set [3] relates to Rpa heterotrimer (Rpa70/Rpa32/Rpa14) (Mus musculus). Briefly: competition (GST pull-down). The settings on record: GST-Dna2 alpha1OB (1-122); EMSA: 20 mM Tris-HCl pH 8.0, 80 mM NaCl, 0.3 mM TCEP, 0.2 mg/mL BSA, 2% glycerol, on ice 30 min, 0.075 or 0.3 nM 32P-DNA; 4% native PAGE, 1x TB, 4 C; recombinant protein; protein details: cleavable N-terminal GST on Rpa32; single-stranded DNA; scale: fold reduction of Rpa bound to GST-alpha1OB at one molar equivalent of DNA.

For some of these results: Negatives hold for the conditions tested. For some of these results: At least one verdict rests on a figure or table, not on a statement of the authors. For some of these results: Where a protein sequence is shown, tags need not be part of it. For some of these results: For at least one entry, the source does not settle the construct or the ends of the probe.

A word on the Kd: it is the concentration at which binding is half-saturated.

For the sequence TTTTTTTTTTTTTTTTTTTT [(dT)20], the dissociation constant Kd with Dna2 OB domain is above 80 µM.
Take TTTTTTTT [(dT)8]: the binding result is “no binding” in data set [1] and “binds” in data set [2].
For TTTTTTTTTTTTTTTTTTTTTTTT [(dT)24], in data set [3], the binding signal stood at 4.

These data come from PMC4716839.
